This is an account of results in the supplement of paper PMC10849652.

The chains behind the UniProt entries cited, without tags or fusion partners. Where a name states a change or a piece, a line headed by the entry shows the natural chain unless it says otherwise.
UniProt Q4G0T1: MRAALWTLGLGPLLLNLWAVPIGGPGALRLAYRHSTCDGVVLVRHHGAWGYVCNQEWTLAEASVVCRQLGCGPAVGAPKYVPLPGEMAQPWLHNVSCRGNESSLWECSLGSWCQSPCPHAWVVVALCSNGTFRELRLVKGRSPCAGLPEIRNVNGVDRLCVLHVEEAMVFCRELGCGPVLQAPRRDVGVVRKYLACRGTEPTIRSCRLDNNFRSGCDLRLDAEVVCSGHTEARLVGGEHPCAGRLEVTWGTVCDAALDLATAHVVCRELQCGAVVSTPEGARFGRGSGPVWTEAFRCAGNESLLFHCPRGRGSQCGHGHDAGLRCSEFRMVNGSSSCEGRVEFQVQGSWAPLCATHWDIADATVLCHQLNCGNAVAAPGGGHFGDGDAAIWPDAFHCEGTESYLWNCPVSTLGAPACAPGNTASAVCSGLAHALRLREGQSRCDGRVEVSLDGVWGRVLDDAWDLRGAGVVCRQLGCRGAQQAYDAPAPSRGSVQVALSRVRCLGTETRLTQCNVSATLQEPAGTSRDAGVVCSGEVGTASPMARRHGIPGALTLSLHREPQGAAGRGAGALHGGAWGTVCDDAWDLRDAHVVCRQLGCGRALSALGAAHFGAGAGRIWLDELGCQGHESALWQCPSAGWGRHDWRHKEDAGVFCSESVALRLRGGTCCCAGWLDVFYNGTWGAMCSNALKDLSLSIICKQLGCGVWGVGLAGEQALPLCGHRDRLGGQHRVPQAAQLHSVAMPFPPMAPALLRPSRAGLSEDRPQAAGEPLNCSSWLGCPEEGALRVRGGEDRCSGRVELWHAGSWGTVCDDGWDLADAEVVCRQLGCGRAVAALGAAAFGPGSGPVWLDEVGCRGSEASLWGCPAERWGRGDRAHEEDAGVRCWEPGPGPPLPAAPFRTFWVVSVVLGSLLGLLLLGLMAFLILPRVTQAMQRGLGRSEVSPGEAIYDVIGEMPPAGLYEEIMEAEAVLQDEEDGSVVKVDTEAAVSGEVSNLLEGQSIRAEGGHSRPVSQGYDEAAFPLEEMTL
UniProt Q86YS6: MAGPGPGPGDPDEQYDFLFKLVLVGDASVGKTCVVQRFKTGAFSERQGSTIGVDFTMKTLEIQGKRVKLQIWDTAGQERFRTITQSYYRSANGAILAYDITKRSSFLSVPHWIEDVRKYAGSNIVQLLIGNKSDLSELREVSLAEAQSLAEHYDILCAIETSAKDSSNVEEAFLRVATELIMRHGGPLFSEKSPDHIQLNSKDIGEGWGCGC
UniProt P20337: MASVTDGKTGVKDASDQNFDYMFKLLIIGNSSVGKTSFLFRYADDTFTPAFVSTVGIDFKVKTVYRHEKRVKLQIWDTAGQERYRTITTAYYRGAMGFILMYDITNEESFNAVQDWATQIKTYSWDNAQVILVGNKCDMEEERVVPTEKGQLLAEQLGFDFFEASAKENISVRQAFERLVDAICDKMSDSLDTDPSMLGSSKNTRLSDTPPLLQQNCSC
UniProt Q92698: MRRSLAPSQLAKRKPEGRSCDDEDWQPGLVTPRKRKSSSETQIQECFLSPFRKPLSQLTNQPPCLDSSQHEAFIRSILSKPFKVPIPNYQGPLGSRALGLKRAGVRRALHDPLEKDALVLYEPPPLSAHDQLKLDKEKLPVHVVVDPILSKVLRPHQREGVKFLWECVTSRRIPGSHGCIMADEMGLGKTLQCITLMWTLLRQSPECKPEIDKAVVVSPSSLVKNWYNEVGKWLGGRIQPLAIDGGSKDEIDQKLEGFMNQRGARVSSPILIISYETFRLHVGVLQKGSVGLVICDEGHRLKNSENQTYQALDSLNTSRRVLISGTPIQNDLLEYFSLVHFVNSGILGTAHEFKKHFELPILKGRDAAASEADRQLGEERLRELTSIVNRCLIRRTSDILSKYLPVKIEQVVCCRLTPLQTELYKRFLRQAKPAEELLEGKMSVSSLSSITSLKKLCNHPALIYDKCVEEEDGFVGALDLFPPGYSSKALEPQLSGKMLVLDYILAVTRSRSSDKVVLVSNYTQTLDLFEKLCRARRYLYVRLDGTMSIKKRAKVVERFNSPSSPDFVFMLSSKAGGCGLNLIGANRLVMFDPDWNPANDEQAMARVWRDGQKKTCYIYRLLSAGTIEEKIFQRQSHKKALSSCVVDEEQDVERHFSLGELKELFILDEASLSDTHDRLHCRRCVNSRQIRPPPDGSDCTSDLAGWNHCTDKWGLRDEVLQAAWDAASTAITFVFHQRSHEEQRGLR
UniProt O75154: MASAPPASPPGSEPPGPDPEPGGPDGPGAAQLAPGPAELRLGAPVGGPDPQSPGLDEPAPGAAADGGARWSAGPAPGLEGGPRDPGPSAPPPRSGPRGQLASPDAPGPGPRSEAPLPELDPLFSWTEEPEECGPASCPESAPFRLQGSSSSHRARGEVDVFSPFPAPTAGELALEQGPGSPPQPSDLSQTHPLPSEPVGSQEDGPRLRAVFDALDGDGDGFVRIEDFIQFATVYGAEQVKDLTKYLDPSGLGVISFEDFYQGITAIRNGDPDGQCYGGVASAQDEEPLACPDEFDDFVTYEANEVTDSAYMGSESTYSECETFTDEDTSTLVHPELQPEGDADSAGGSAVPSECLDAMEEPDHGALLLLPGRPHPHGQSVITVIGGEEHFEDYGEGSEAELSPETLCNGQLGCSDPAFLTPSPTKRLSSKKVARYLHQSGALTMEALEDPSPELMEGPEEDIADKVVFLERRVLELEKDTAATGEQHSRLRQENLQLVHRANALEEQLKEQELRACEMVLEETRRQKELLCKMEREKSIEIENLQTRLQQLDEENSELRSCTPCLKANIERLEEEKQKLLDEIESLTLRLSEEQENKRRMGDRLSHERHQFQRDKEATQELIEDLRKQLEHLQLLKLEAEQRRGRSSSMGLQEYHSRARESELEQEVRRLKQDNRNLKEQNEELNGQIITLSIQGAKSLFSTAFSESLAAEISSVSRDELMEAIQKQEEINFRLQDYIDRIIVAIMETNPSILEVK
UniProt Q96DA2: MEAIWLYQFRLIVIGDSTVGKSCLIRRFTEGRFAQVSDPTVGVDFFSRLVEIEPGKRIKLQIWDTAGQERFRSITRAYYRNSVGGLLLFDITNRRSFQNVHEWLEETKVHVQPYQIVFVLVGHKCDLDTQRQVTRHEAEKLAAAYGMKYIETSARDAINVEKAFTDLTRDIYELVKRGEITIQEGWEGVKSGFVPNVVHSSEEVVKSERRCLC

Some of the results follow.

What all share (test): log2 fold change, soluble protein after heating vs DMSO (PISA); higher = thermal stabilisation; K562 lysate, 10 uM; active = over 0.2 and 3.5 SD of the protein, either way, in both replicates (recomputed)
Compound in assay [1]: CCn1c(C(=O)N(C2CC2)C2CC2)cc2c3c(ncn3C)c(Nc3cc(C)n(C)n3)nc21
In outline:
(§1)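 The values are log-two fold changes in thermal stability compared with solvent controls and come from duplicates. They were obtained by TMTpro 16plex LC-MS/MS, with channel sums equalised, on the supernatant after 21,000xg for 90 min. That supernatant came from crude K562 extract at 1 mg/mL protein treated with 10 μM compound for 30 min, heated for 3 min across 48°C-58°C, pooled and brought to 0.5% NP-40 at 4°C.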

Compound in assay [2]: CCn1cc(-c2ccnc3[nH]c(-c4cccc(CN(C)C)c4)cc23)c(-c2ccc(NC(=O)N(C)C)cc2)n1
In outline:
as §1

Compound in assay [3]: CN1CCC(CNc2ccc3ncc(-c4cccc(OC(F)(F)F)c4)n3n2)CC1
In a few lines: as §1

Compound in the next assay: CN1CCN(CCOc2cc(OC3CCOCC3)c3c(Nc4c(Cl)ccc5c4OCO5)ncnc3c2)CC1 [saracatinib]
In outline: as §1

Compound in the next assay: CN1CCN(c2nc(C3=C(c4c[nH]c5ccccc45)C(=O)NC3=O)c3ccccc3n2)CC1 [sotrastaurin]
In a few lines:
as §1

Compound in the next assay: CCN(CCCOc1ccc2c(Nc3cc(CC(=O)Nc4cccc(F)c4)[nH]n3)ncnc2c1)CCOP(=O)(O)O [barasertib]
In outline: as §1

Compound in assay [4]: CC[C@@H]1C(=O)N(C)c2cnc(Nc3ccc(C(=O)NC4CCN(C)CC4)cc3OC)nc2N1C1CCCC1
In a few lines: as §1

Compound in another assay: CCCS(=O)(=O)Nc1ccc(F)c(C(=O)c2c[nH]c3ncc(-c4ccc(Cl)cc4)cc23)c1F [vemurafenib]
In a few lines: as §1

Compound in assay [5]: CCCS(=O)(=O)Nc1ccc(F)c(C(=O)c2c[nH]c3ncc(Cl)cc23)c1F
In outline:
as §1

Compound in the next assay: CC[C@@H]1C(=O)N(C)c2cnc(Nc3ccc(C(=O)N[C@H]4CC[C@H](N5CCN(CC6CC6)CC5)CC4)cc3OC)nc2N1C(C)C [volasertib]
In outline:
as §1

Turning to NA (UniProt Q4G0T1), the log2 fold change is inactive: 0.032 in [1]; inactive: 0.022 in [2]; inactive: 0.026 in [3]; inactive: -0.033 in the assay with saracatinib; inactive: 0.129 in the assay with sotrastaurin.
In the case of RAB43 (UniProt Q86YS6), the log2 fold change with barasertib was inactive: 0.047; in [4], inactive: 0.031; in assay [1], inactive: -0.01; in [2] it was inactive: 0.01; in assay [3], inactive: 0.034; in the assay with saracatinib, inactive: -0.43.
In the case of RAB3B (UniProt P20337), the log2 fold change was inactive: -0.007 in assay [2], inactive: 0.037 in assay [3] and inactive: 0.022 with sotrastaurin.
RACK1 (UniProt D6RHH4): the log2 fold change is inactive: 0.235 with vemurafenib, inactive: 0.906 in the assay with barasertib, inactive: 1.62 in [2] and inactive: 0.219 in assay [3].
As to RAD54L (UniProt Q92698), the log2 fold change was inactive: -0.054 in [5]; inactive: 0.012 with barasertib; inactive: 0.015 with volasertib; inactive: 0.005 in [1]; active: -2.19 in [2]; inactive: 0.648 in assay [3]. For the same target, the log2 fold change with saracatinib was inactive: 0.095.
Turning to RAB11FIP3 isoform 3 (UniProt O75154), the log2 fold change was inactive: -0.058 in assay [5]; inactive: -0.055 in assay [4]; inactive: 0.098 with volasertib; inactive: -0.098 in assay [1]; inactive: 0.277 in the assay with saracatinib.
Regarding RAB39B (UniProt Q96DA2), the values for the log2 fold change (with barasertib; in [2]; in [3]) were inactive: 0.097, inactive: -1.43 and inactive: 0.426, respectively.
